The results in this text go back to PMC9325726.

The target of this experiment is T1, AM0627^E326A (P71-E506), inactive E326A mutant of the Akkermansia muciniphila AM0627 mucinase (Akkermansia muciniphila) (UniProt B2UPI7).
T1 sequence: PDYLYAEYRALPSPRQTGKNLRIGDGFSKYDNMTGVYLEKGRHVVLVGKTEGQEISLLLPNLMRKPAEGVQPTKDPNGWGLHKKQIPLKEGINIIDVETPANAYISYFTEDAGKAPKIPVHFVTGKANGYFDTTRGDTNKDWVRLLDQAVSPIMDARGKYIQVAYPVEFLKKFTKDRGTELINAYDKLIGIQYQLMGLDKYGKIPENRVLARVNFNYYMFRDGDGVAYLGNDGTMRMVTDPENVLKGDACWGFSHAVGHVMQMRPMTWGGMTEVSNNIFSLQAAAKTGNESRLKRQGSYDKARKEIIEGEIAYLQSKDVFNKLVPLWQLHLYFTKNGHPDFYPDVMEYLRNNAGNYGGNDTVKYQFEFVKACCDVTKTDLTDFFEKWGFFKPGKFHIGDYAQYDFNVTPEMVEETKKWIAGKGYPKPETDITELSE
Briefly: crystal structure; AM0627^E326A at 15 mg/ml co-crystallised with 0.5 mM ZnCl2 and 5 mM P1; space group P2(1)2(1)2(1), two molecules in the asymmetric unit; 1.5 Å; both purified.

Results are given in words; binding and its absence hold for the method and conditions named. Some entries that bind do so weakly or less than the wild type.

As to TEAQTTPPPA (Galβ1-3GalNAcα1-O (T O-glycan) on Thr5 and on Thr6) [P1, PSGL-1-like bis-T glycopeptide], the binding entry is listed as “binds”.
